In patent US20240299290A1, “METHODS AND COMPOSITIONS FOR RAPID DELIVERY OF ANTI-SEIZURE THERAPEUTICS” (Neurelis, Inc., priority 2021, published 2024):
Like-named read-outs stand apart in the source and are kept apart here.

Tests used:
[1] = cited from earlier work; for mean Cmax / median Tmax: healthy volunteers (Ivaturi 2009)
seizure = experiment: Rapid onset of therapeutic effect: seizure cessation measured by EEG after intranasal diazepam; conditions: 15 mg intranasal, dosed during seizure; individual subjects
[2] = intranasal 4 mg in polyethylene glycol 300 (Lindhardt 2001)
[3] = intranasal 7 mg in polyethylene glycol 300 (Lindhardt 2001)

## CN1C(=O)CN=C(c2ccccc2)c2cc(Cl)ccc21 [diazepam, 7-chloro-1,3-dihydro-1-methyl-5-phenyl-2H-1,4-benzodiazepin-2-one]
Intranasal 15 mg
  AUC compared to rectally administered diazepam (DIASTAT): slightly lower
Intranasal 20 mg
  AUC compared to rectally administered diazepam (DIASTAT): comparable AUC values
[1]; intranasal 2 mg dose of 20 mg/mL diazepam solution in 5% glycofurol in polyethylene glycol 200 (Gizurarson and Bechgaard 1991)
  Tmax: 18 ± 11 min
[1]; [2]
  Cmax: 99 ng/mL
  Tmax: 18 min
[1]; intranasal 5 mg
  mean Cmax: 134.3 ± 62 ng/mL
  median Tmax: 20 min
[1]; [3]
  Cmax: 170 ng/mL
  Tmax: 42 min
[1]; intranasal 10 mg
  mean Cmax: 247.6 ± 61 ng/mL
  median Tmax: 30 min
seizure
  Time to Seizure Cessation: 2 min
